Measured values as given in paper PMC7819943, “Rice protein-binding microarrays: a tool to detect cis-acting elements near promoter regions in rice”.
The other results are listed elsewhere or left out.

Chains of the proteins cited; added tags and fusions are not shown.
UniProt Q0JBA9, entry or part of it: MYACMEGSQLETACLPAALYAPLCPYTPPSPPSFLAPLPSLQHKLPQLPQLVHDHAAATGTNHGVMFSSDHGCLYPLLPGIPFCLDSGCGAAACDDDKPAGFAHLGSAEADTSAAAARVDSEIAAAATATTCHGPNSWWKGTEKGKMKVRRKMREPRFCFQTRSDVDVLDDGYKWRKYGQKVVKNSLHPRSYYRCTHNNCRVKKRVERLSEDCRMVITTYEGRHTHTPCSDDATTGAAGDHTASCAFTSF

target: OsWRKY34 (Oryza sativa, UniProt Q0JBA9 1-250); experiment: protein-binding microarray (RPBM); PBS, 2% BSA, 51.3 ng/ul salmon testes DNA, 50 uM zinc acetate, 200 nM TF, 25 C, 1 h; high values mean tight binding; settings: protein: recombinant; tags: N-terminal polyhistidine and DsRed monomer fusion (pET32a); label: CyDye5-dUTP incorporated in the synthesized complementary strand; 3' TTTTT single-stranded linker to array surface; dsDNA, one strand shown
Method in brief: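 Per-feature fluorescence intensity (arbitrary units), read on an Axon 4000B scanner, is the binding signal. Transcription factors carrying an N-terminal polyhistidine tag and DsRed fusion were expressed in E. coli BL21-CodonPlus and purified on Ni–NTA. A custom Agilent array, made double-stranded by primer extension with Cy5-dUTP and blocked with 2% BSA, was incubated with 200 nM protein in PBS, 2% BSA, salmon testes DNA and 50 µM zinc acetate at 25 °C for 1 h and then washed.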

Row | Sequence | binding signal
1 | CCCTCGCACGCCACCGGACGAACACCTCGCCGACAACCTTCGGAGTCACCTAGTGCAG | 8840 fluorescence intensity (a.u.)
2 | TGTTATTGTCAAAATTTTGGCATAGTTAATGATTTCTTATCGGAGTCACCTAGTGCAG | 8160 fluorescence intensity (a.u.)
3 | TCTAAGACTGAATCTGAACCGTTGACTACCTAGATTCGTACGGAGTCACCTAGTGCAG | 10300 fluorescence intensity (a.u.)
4 | CTCGGCCGCACCACCCACAAGACATGTCATCGCTGCTCCGCGGAGTCACCTAGTGCAG | 8620 fluorescence intensity (a.u.)
5 | ATCAGTTTGTAACCCCTACAATTTGTTGTTTATTCTCATACGGAGTCACCTAGTGCAG | 8130 fluorescence intensity (a.u.)
6 | ATCTTTCTTTGGCCAGCCCAAACAGCTCTTGCTGCAGTCACGGAGTCACCTAGTGCAG | 8420 fluorescence intensity (a.u.)
7 | TGTGATGTTTCTGTGAATTGGATTTGATTTGATTATACTGCGGAGTCACCTAGTGCAG | 8350 fluorescence intensity (a.u.)
8 | CCCCATCTGTATTTTAAATTTATATCCGCCACTGATTGTACGGAGTCACCTAGTGCAG | 9800 fluorescence intensity (a.u.)
9 | ACATCCTTCAGTCCTCCACCGTTAAGGAACAAGGACATATCGGAGTCACCTAGTGCAG | 9420 fluorescence intensity (a.u.)
10 | GAATATCCTTTGCCTTTCGTTTTTCTTTTTCCGTATGAAACGGAGTCACCTAGTGCAG | 9320 fluorescence intensity (a.u.)
11 | TGCACATGTCTGATCGATTGAGCATTCTAGGTCCGGCAATCGGAGTCACCTAGTGCAG | 9110 fluorescence intensity (a.u.)
12 | ATCGTTTCCCGTCACTGCCAGATAGCGACACCTCTTTTTGCGGAGTCACCTAGTGCAG | 9600 fluorescence intensity (a.u.)
13 | CCCATTGCTGTCTCTACCATGTGTCATCTTCCAATAAGCACGGAGTCACCTAGTGCAG | 13800 fluorescence intensity (a.u.)
14 | GGTTCAAATTAACTTTTCAATCTTGGCTGTGTTTGGATCCCGGAGTCACCTAGTGCAG | 9630 fluorescence intensity (a.u.)
15 | CGGTGGGTAGGGTGAAAAGATTCCATGGGTAGAAGGAGTACGGAGTCACCTAGTGCAG | 9010 fluorescence intensity (a.u.)
16 | AGCTACTACCTCTGTCTTATAGCAAGTTTAGTTTTAGTTACGGAGTCACCTAGTGCAG | 11400 fluorescence intensity (a.u.)
17 | CCCTCCGTTTCAAAATGTTTGACACCGTTGACTTTTTAGCCGGAGTCACCTAGTGCAG | 28700 fluorescence intensity (a.u.)
18 | GTTATATACTAGATCCGCTCGCCTTGTCCATCACCACCGACGGAGTCACCTAGTGCAG | 8570 fluorescence intensity (a.u.)
19 | GGTTGACTGCTCTCTGAAATTAATTTTATTCGTTTAGTTACGGAGTCACCTAGTGCAG | 10900 fluorescence intensity (a.u.)
20 | GTCAGCGTACATCCATTGCCGATCCATCTACATGAGTCAACGGAGTCACCTAGTGCAG | 8510 fluorescence intensity (a.u.)
21 | CTATTGCTTCCTTTGCACCGCCTCCTCCTTAGTGTCATTGCGGAGTCACCTAGTGCAG | 10300 fluorescence intensity (a.u.)

Row | Sequence | binding signal
22 | ATTTCCGTTTCTAAATTGACACATCGGCTACTCACTTATGCGGAGTCACCTAGTGCAG | 10800 fluorescence intensity (a.u.)
23 | GTCATCAGTATATATATACCATCGCTGTCTGTTTTGTAGTCGGAGTCACCTAGTGCAG | 8460 fluorescence intensity (a.u.)
24 | AGTCCGTCGGTTAAGTGTTGGCCCGAACCAATGTCGGAATCGGAGTCACCTAGTGCAG | 8220 fluorescence intensity (a.u.)
25 | ATACTTAATTTTGGGCTTTCCTATTTTCCGGCCATTTTACCGGAGTCACCTAGTGCAG | 11500 fluorescence intensity (a.u.)
26 | GGGGTCTCTGATAGTCTGATTTTTTTGTCCTTTCTCATCACGGAGTCACCTAGTGCAG | 10600 fluorescence intensity (a.u.)
27 | CTTCATTGCTTCCTGTTTCCTAGCATCTCTTGTTTTCAGTCGGAGTCACCTAGTGCAG | 9110 fluorescence intensity (a.u.)
28 | GCTTTCTTTTAGCTATATACTCTATCCGTTTTAGGTTATACGGAGTCACCTAGTGCAG | 8940 fluorescence intensity (a.u.)
29 | CCGGTAGTCCAATCACTAGATATATTGTGTCTTTTTATTACGGAGTCACCTAGTGCAG | 9810 fluorescence intensity (a.u.)
30 | GCATGTAATTTAGAGGCTTTTAGTTTTCTTTGTTCATATTCGGAGTCACCTAGTGCAG | 9200 fluorescence intensity (a.u.)
31 | TTTTCCTCAAAACTGTTGCTTAGACCATTCTCTTCTTTCCCGGAGTCACCTAGTGCAG | 8090 fluorescence intensity (a.u.)
32 | ACTCATCTCTGTAAATGTACACCTTTGCCCTTTTAACCTTCGGAGTCACCTAGTGCAG | 9780 fluorescence intensity (a.u.)
33 | ATATTATGTCATTTTCTAATATTTACGTCTTTTCTTTCTTCGGAGTCACCTAGTGCAG | 12100 fluorescence intensity (a.u.)
34 | TTCTTCCGCACCCACCGTTGTTTTGACCCTGTTTTCACAACGGAGTCACCTAGTGCAG | 9130 fluorescence intensity (a.u.)
35 | GTACAGGGGCCGCTCCTTCTTCGTCTTCTTGGGCTTCTCCCGGAGTCACCTAGTGCAG | 10400 fluorescence intensity (a.u.)
36 | TCTCCTTTGTATCATCACCCGCCGCTATAAAAGCATAACCCGGAGTCACCTAGTGCAG | 8690 fluorescence intensity (a.u.)
37 | CGGGTTCGTTGGGTTTTATCTATATAGGCGGCGAGCGAGACGGAGTCACCTAGTGCAG | 12300 fluorescence intensity (a.u.)
38 | CGGCCACGGCCGACACACACAGCCAGATCCATCGCCTCGCCGGAGTCACCTAGTGCAG | 8490 fluorescence intensity (a.u.)
39 | CAATCACAAGCTATACCTGGACGGTTTCTCTATATTTTTTCGGAGTCACCTAGTGCAG | 9850 fluorescence intensity (a.u.)
40 | TATAACCATTACGTACTCCACGACAGCTCCTCTGCGACGCCGGAGTCACCTAGTGCAG | 8220 fluorescence intensity (a.u.)
41 | TTTGTGTAACCGATATGTGGGCCCCACATATTTTATTATTCGGAGTCACCTAGTGCAG | 9030 fluorescence intensity (a.u.)
42 | AGCTTTTTGTGTTCATTGGCCATTGTGTAGTAATTAAAACCGGAGTCACCTAGTGCAG | 8600 fluorescence intensity (a.u.)

Reformatted: results already given.

| Row | Sequence | binding signal |
| --- | --- | --- |
| 30 | GCATGTAATTTAGAGGCTTTTAGTTTTCTTTGTTCATATTCGGAGTCACCTAGTGCAG | 9200 fluorescence intensity (a.u.) |
| 31 | TTTTCCTCAAAACTGTTGCTTAGACCATTCTCTTCTTTCCCGGAGTCACCTAGTGCAG | 8090 fluorescence intensity (a.u.) |
| 32 | ACTCATCTCTGTAAATGTACACCTTTGCCCTTTTAACCTTCGGAGTCACCTAGTGCAG | 9780 fluorescence intensity (a.u.) |
